Where a name gives a salt, the structure may show the parent alone. ± gives the standard deviation of the averaged measurements. This is one part of the list. Values are raw readings; no control value is given beside them.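 Across three biological replicates, HeLa cells were imaged for ribosome assembly using ENP1 staining (export block present or absent) or inducible tagged ribosomal protein reporters. Machine learning classified each cell's signal localization relative to DMSO controls. Hits exceeded the DMSO false-positive mean by five standard deviations and were then visually confirmed.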

Consider 9 compounds from the supplement of paper PMC12542422.

The subject of this test is HeLa RPS2-YFP reporter. The test is described as follows: fraction of reporter-positive cells with nuclear (nucleolar or nucleolar/nucleoplasmic) RPS2-YFP (MainHitrate); higher = more cells with nucleolar/nuclear readout signal (for ENP1 -LMB: less RNAPI inhibition; for +LMB ENP1 and RP reporters: stronger nuclear/nucleolar retention, i.e. ribosome biogenesis defect). As to conditions: concentration: 1 µM; treatment time: 6 h.
For the compound `CCCSc1nc(N[C@@H]2C[C@H]2c2ccc(F)c(F)c2)c2nnn([C@@H]3C[C@H](OCCO)[C@@H](O)[C@H]3O)c2n1` [Ticagrelor], the “fraction of reporter-positive cells with nuclear” value (from here on “fraction”) came out at 0.13 ± 0.12.
Next, `CC[C@H]1OC(=O)[C@H](C)[C@@H](O[C@H]2C[C@@](C)(OC)[C@@H](O)[C@H](C)O2)[C@H](C)[C@@H](O[C@@H]2O[C@H](C)C[C@H](N(C)C)[C@H]2O)[C@](C)(OC)C[C@@H](C)C(=O)[C@H](C)[C@@H](O)[C@]1(C)O` [Clarithromycin (Biaxin, Klacid)]: 0.119 ± 0.071.
In the case of `CO[C@H]1/C=C/O[C@@]2(C)Oc3c(C)c(O)c4c(O)c(c(/C=N/N5CCN(C6CCCC6)CC5)c(O)c4c3C2=O)NC(=O)/C(C)=C\C=C\[C@H](C)[C@H](O)[C@@H](C)[C@@H](O)[C@@H](C)[C@H](OC(C)=O)[C@@H]1C` [Rifapentine (Priftin)], the “fraction” value turned out to be 0.108 ± 0.073.
With `CNCCc1ccccn1` [Betahistine 2HCl], the “fraction” value was found to be 0.133 ± 0.11.
For the compound `C[C@@H](CN1CC(=O)NC(=O)C1)N1CC(=O)NC(=O)C1` [Dexrazoxane Hydrochloride], the “fraction” value came out at 0.101 ± 0.054.
On to `CC(=O)Nc1c(I)c(C(=O)N[C@H]2C(O)O[C@H](CO)[C@@H](O)[C@@H]2O)c(I)c(N(C)C(C)=O)c1I` (some centres undefined) [Metrizamide], for which the “fraction” value worked out at 0.178 ± 0.17.
Regarding `Cc1nnc(NS(=O)(=O)c2ccc(N)cc2)s1` [Sulfamethizole (Proklar)], the “fraction” value amounted to 0.116 ± 0.083.
To `COc1ccc2c(c1)c(CC(=O)OCC(=O)O)c(C)n2C(=O)c1ccc(Cl)cc1` [Acemetacin (Emflex)] belongs 0.118 ± 0.097.
Take `CCN(CC)CCOC(=O)C(c1ccccc1)c1ccccc1` [Adiphenine HCl]: the “fraction” value worked out at 0.0817 ± 0.064.
